Results from patent US9949961B2, “Agent for the prophylaxis and/or treatment of neoplastic diseases” (priority 2013, dated 2018).
Some of these results come from one statement about several compounds together.

Columns and labels:
[1] = tested on: hepatic tumors induced by DENA; assay: Preventive effect on hepatic neoplasms induced by N-diethyl nitrosamine (DENA) in rats; assay type: in vivo, male Wistar rats; details: 25 mg/kg a day
Procedure: The efficacy of preventive effects of Products 1 and 2 in relation to hepatic neoplasms was shown in the experiment on male Wistar rats which were intraperitoneally administered with chemical carcinogen-N-diethyl nitrosamine (DENA) (Nitrosodiethylamin (N—N)). The nature of the invention is explained with the execution example.
To solve the task, 3 groups of male Wistar rats weighing 150-200 g were formed, 16 in each. Rats of the control group were administered intraperitoneally with DENA in dose 30 mg/kg/week. The dosage was administered in 2 doses: Monday and Thursday. The animals of test groups were similarly administered with DENA. Rats of test groups took drinking water in addition to Products 1 and 2 assuming that they took 25 mg/kg of body weight/day with water. The animals started taking the products 3 weeks prior administration of N-diethyl nitrosamine to develop protective background in animal body and subsequently for 2.5 months.
During the experiment, weight of rats was controlled. After autopsy of animals, liver was weighted, tumors were visually counted on its surface and photographed.

[2] = tested on: Lewis carcinoma; assay: Anti-neoplastic and anti-metastatic activity in mice with Lewis carcinoma implanted to the paw; assay type: in vivo, male mice F1 (CBA×C57B1/6); details: for Decrease of tumor volume by increase of dose: 25 mg/kg versus 5 mg/kg; for Decrease of tumor volume by starting one week prior tumor implantation: four weeks course versus dosing only after implantation
Procedure: The efficacy of anti-neoplastic (anti-proliferative) and anti-metastatic properties of products 1 and 2 was shown in the experiment on male mice F1 (CBA×CS7B1/6) with Lewis carcinoma implanted to the paw following intragastric administration in two doses: 5 mg/kg and 25 mg/kg for 3 weeks immediately after implantation and within 1 week prior tumor transplantation.
Test system. To examine anti-neoplastic (anti-proliferative) and anti-metastatic properties of products 1 and 2, 120 hybrid male mice of the first generation CBA×[…] were used: each group of 10-12 mice. Lewis carcinoma was implanted to a hind paw, in the amount ˜10^6 cells (˜0.2 cm^3) Doses and dosing schemes for products 1 and 2. Route of the product administration—per os provided addition of products 1 and 2 to drinking water which was given to animals. Products 1 and 2 were added to drinking water by two schemes: within 3 weeks immediately after implantation and within 4 weeks with the dosing started prior implantation.
Anti-neoplastic (anti-proliferative) and anti-metastatic activity of products 1 and 2 was assessed based on change of tumor volume and number of lung metastases. The number of metastases was assessed on day 21 after tumor implantation (day 28 after the administration of products 1 and 2 by the 1-st scheme). For that, lungs were withdrawn in animals decapitated under anesthesia and transferred to Bouin's fluid. Metastases were visually counted. The volume of neoplasm was assessed by ellipsoid equation (1). […]
[formula] where: d1, d2, d3—mutually perpendicular tumor sizes.

## O=C1CSC(=S)N1CCc1ccccc1 [Product 1]
[1]
  Decrease of the number of tumors in comparison with control group: 4.0-4.4 times
[2]; dosed only after tumor implantation
  Decrease of tumor volume by increase of dose: 19-21%
[2]; dosed prior and after tumor implantation
  Decrease of tumor volume by increase of dose: 23-24%
[2]; dose 5 mg/kg
  Decrease of tumor volume by starting one week prior tumor implantation: 13-14%
[2]; dose 25 mg/kg
  Decrease of tumor volume by starting one week prior tumor implantation: 15-16%
